According to patent US20100021918A1, “METHOD FOR ASSAYING ACTION OF ANTITUMOR AGENT USING SPLICING DEFECTS AS INDEX” (Eisai R&D Management Co., Ltd., priority 2007, published 2010):
This continues a long series; more values of the same kind are listed elsewhere.

Test system: human colon carcinoma cell strain WiDr
Experiment: Microarray analysis (2), reviewed conditions, intron expression, Table 3
Type: cell-based
Protocol: WiDr cells were first suspended in RPMI1640 medium (containing 10% FBS, penicillin, and streptomycin) and seeded in a 10 cm dish (2×10^6 cells/dish). After an overnight culture in an incubator with 5% carbon dioxide gas at 37° C., the medium was changed with medium containing 14 nM of (8E,12E,14E)-7-((4-cycloheptylpiperazin-1-yl)carbonyl)oxy-3,6,16,21-tetrahydroxy-6,10,12,16,20-pentamethyl-18,19-epoxytricosa-8,12,14-trien-11-olide or containing vehicle alone. After cultured for additional six hours, TRI reagent (SIGMA) were added to the cells and the cells were harvested. RNA was purified in accordance with the protocol of TRI reagent, followed by further purification with RNeasy (QIAGEN). Absorbance at 260 nm was measured to quantify an amount of RNA. This experiment was repeated three times and RNA samples (n=3) were prepared.
Ribosomal RNA was removed from 1 μg of each total RNA of control cells (n=3) and cells with the treatment (n=3) by using RiboMinus Human/Mouse Transcriptome Isolation Kit (Invitrogen). Single stranded cDNA synthesis, double stranded cDNA synthesis, cRNA synthesis, second single stranded cDNA synthesis, cDNA fragmentation, and cDNA labeling in order were carried out for the total RNA from which ribosomal RNA was removed, by using GeneChip Whole Transcript Sense Target Labeling and Control Reagents (Affymetrix) to make a cDNA probe. The cDNA probe was used for hybridization with Human Exon 1.0 ST Array (Affymetrix). The array was washed and stained, and luminescence intensity was measured by a scanner.
Analysis conditions were reviewed in the data used in Example 3. Genes containing increased introns upon treatment with (8E,12E,14E)-7-((4-cycloheptylpiperazin-1-yl)carbonyl)oxy-3,6,16,21-tetrahydroxy-6,10,12,16,20-pentamethyl-18,19-epoxytricosa-8,12,14-trien-11-olide were identified.
In order to consider the analysis conditions, variations in the data from the samples with identical conditions were studied. […] It turned out that, by analyzing under conditions where the expression level was more than 100 and change in the expression level was more than five times, a probe set with increased expression can be extracted.
Probe sets showing that the normalized change in the level expression of the probe set in the group with the treatment was more than 5 times; the expression level of the probe set and the gene in the group with the treatment were more than 100; and probe set annotation was “extended, full, free”, were picked out. Welch's t-test was conducted with the probe sets extracted for the treated group and the control group to determine a p and q value. A gene containing the probe sets with the q value of less than 5% was determined as a candidate gene with increased expression level of the intron regions (Table 3).
In Table 3, for each gene evaluated, gene name (Gene Name), abbreviated name (Gene Symbol), accession number (Accession), alias name (Synonym), transcription cluster number in Human Exon 1.0 ST Array (Human Exon 1.0 ST Array Transcript Cluster ID), chromosome number (Chromosome), type of strand (Strand), start region (Start), stop region (Stop), and change in expression level (Fold Change) were respectively shown.

Structure (SMILES): CCC(O)C(C)C1OC1CC(C)(O)/C=C/C=C(\C)C1OC(=O)CC(O)CCC(C)(O)C(OC(=O)N2CCN(C3CCCCCC3)CC2)/C=C/C1C (stereo not shown) [E7107, (8E,12E,14E)-7-((4-cycloheptylpiperazin-1-yl)carbonyl)oxy-3,6,16,21-tetrahydroxy-6,10,12,16,20-pentamethyl-18,19-epoxytricosa-8,12,14-trien-11-olide]
- Fold Change (gene NOL5A, intron expression, treated vs control): 6.81
- Fold Change (gene NOL8, intron expression, treated vs control): 7.25
- Fold Change (gene NOL9, change in expression level, treated vs control): 13.58
- Fold Change (gene NOL11, Transcript Cluster ID 3732373, intron expression, treated vs control): 9.45
- Fold Change (gene NOLA1, change in expression level, treated vs control): 13.42
- Fold Change (gene NP, intron expression, treated vs control): 6.61
- Fold Change (gene NPEPPS, intron expression, treated vs control): 7.11
- Fold Change (gene NR1H2, Transcript Cluster ID 3839276): 5.28
- Fold Change (gene NSUN2, intron expression, treated vs control): 7.06
- Fold Change (gene NTSR1, Transcript Cluster ID 3892873, intron expression, treated vs control): 9.10
- Fold Change (gene NUMA1, intron expression, treated vs control): 7.25
- Fold Change (gene NUP54, intron expression, treated vs control): 7.04
- Fold Change (gene NUP88, change in expression level, treated vs control): 6.41
- Fold Change (gene NUP153, Transcript Cluster ID 2943808, intron expression, treated vs control): 9.56
- Fold Change (gene NUP160, intron expression, treated vs control): 6.74
- Fold Change (gene NUP214, change in expression level, treated vs control): 11.18
- Fold Change (gene NUPL1, change in expression level, treated vs control): 10.97
- Fold Change (gene ODC1, intron expression, treated vs control): 7.27
- Fold Change (gene OGFR, intron expression, treated vs control): 6.65
- Fold Change (gene ORC2L // MGC39518, intron expression, treated vs control): 7.31
- Fold Change (gene ORC5L, Transcript Cluster ID 3065963): 5.04
- Fold Change (gene OSBP, change in expression level, treated vs control): 6.51
- Fold Change (gene OSBPL2, Transcript Cluster ID 3892565, intron expression, treated vs control): 9.91
- Fold Change (gene OTUD4, Transcript Cluster ID 2788195, intron expression, treated vs control): 10.88
- Fold Change (gene OXR1, change in expression level, treated vs control): 6.50
- Fold Change (gene PA2G4 // (symbol continues below the shown rows), intron expression, treated vs control): 7.23
- Fold Change (gene PAPOLA, change in expression level, treated vs control): 6.46
- Fold Change (gene PCBP2, change in expression level, treated vs control): 6.23
- Fold Change (gene PCGF3, intron expression, treated vs control): 7.41
- Fold Change (gene PDCD6 // AHRR, intron expression, treated vs control): 6.81
- Fold Change (gene PDCD7, Transcript Cluster ID 3629475, intron expression, treated vs control): 9.97
- Fold Change (gene PDF // COG8, Transcript Cluster ID 3696524): 5.20
- Fold Change (gene PDHX // MAPK10, Transcript Cluster ID 3326540, intron expression, treated vs control): 9.81
- Fold Change (gene PDRG1, Transcript Cluster ID 3902609): 5.09
- Fold Change (gene PDZD8, intron expression, treated vs control): 7.39
- Fold Change (gene PES1, Transcript Cluster ID 3957445): 5.05
- Fold Change (gene PGK1, change in expression level, treated vs control): 6.19
- Fold Change (gene PIAS1, Transcript Cluster ID 3599280, intron expression, treated vs control): 9.03
- Fold Change (gene PICALM, change in expression level, treated vs control): 13.00
- Fold Change (gene PIGG, intron expression, treated vs control): 7.22
- Fold Change (gene PIK3R4, Transcript Cluster ID 2695200, intron expression, treated vs control): 9.79
- Fold Change (gene PLK1, Transcript Cluster ID 3653072, intron expression, treated vs control): 10.82
- Fold Change (gene PLK2, change in expression level, treated vs control): 14.01
- Fold Change (gene PLK4, Transcript Cluster ID 2742985, intron expression, treated vs control): 10.88
- Fold Change (gene PMM2, change in expression level, treated vs control): 6.22
- Fold Change (gene PMPCA, change in expression level, treated vs control): 16.01
- Fold Change (gene POLR1C, Transcript Cluster ID 2908052, intron expression, treated vs control): 10.29
- Fold Change (gene POLR1E, change in expression level, treated vs control): 5.97
- Fold Change (gene POLR2D // WDR33, Transcript Cluster ID 2575134): 5.45
- Fold Change (gene POLR3E, change in expression level, treated vs control): 6.13
- Fold Change (gene POMP, change in expression level, treated vs control): 5.99
- Fold Change (gene PPAN // PPAN-P2RY11, change in expression level, treated vs control): 12.07
- Fold Change (gene PPARBP, change in expression level, treated vs control): 13.29
- Fold Change (gene PPFIBP1, change in expression level, treated vs control): 6.39
- Fold Change (gene PPP1CC, change in expression level, treated vs control): 13.87
- Fold Change (gene PPP1R15B // PIK3C2B, Transcript Cluster ID 2452049): 5.17
- Fold Change (gene PPP2CA, change in expression level, treated vs control): 6.05
- Fold Change (gene PPP2R2A, intron expression, treated vs control): 6.82
- Fold Change (gene PPP4R2, change in expression level, treated vs control): 17.19
- Fold Change (gene PRC1 // IFRD1, Transcript Cluster ID 3639031, intron expression, treated vs control): 10.49
- Fold Change (gene PRDM4 // PRKAR2B, intron expression, treated vs control): 6.56
- Fold Change (gene PRKAR1A, change in expression level, treated vs control): 6.49
- Fold Change (gene PRPF4B, change in expression level, treated vs control): 6.19
- Fold Change (gene PRPF8, change in expression level, treated vs control): 11.12
- Fold Change (gene PRSS23, intron expression, treated vs control): 6.87
- Fold Change (gene PSMB7, Transcript Cluster ID 3225003, intron expression, treated vs control): 8.97
- Fold Change (gene PSMC4, Transcript Cluster ID 3833291): 5.08
- Fold Change (gene PSMC5, Transcript Cluster ID 3730941): 5.18
- Fold Change (gene PSMD3, change in expression level, treated vs control): 12.85
- Fold Change (gene PSMD6, intron expression, treated vs control): 7.47
- Fold Change (gene PSMD7, Transcript Cluster ID 3668617, intron expression, treated vs control): 8.92
- Fold Change (gene PSMD12, intron expression, treated vs control): 6.75
- Fold Change (gene PTBP1, intron expression, treated vs control): 6.96
- Fold Change (gene PTBP2, intron expression, treated vs control): 6.70
- Fold Change (gene PTCD3 // KIF5A, intron expression, treated vs control): 6.91
- Fold Change (gene PTEN, Transcript Cluster ID 3256689): 5.25
- Fold Change (gene PTP4A1, change in expression level, treated vs control): 6.10
- Fold Change (gene PTPN1, change in expression level, treated vs control): 6.45
- Fold Change (gene PTPN12, intron expression, treated vs control): 6.54
- Fold Change (gene PUM2, change in expression level, treated vs control): 13.55
- Fold Change (gene PVR, change in expression level, treated vs control): 14.67
- Fold Change (gene PVRL2, change in expression level, treated vs control): 6.04
- Fold Change (gene PXN, intron expression, treated vs control): 7.47
- Fold Change (gene QSER1, change in expression level, treated vs control): 6.22
- Fold Change (gene RAB5A, change in expression level, treated vs control): 11.19
- Fold Change (gene RAB14, change in expression level, treated vs control): 10.96
- Fold Change (gene RAB22A, Transcript Cluster ID 3890870): 5.42
- Fold Change (gene RABGGTB // MSH4, intron expression, treated vs control): 7.07
- Fold Change (gene RABL5, change in expression level, treated vs control): 6.24
- Fold Change (gene RACGAP1, change in expression level, treated vs control): 6.09
- Fold Change (gene RAD18, Transcript Cluster ID 2662020, intron expression, treated vs control): 9.94
- Fold Change (gene RAE1, change in expression level, treated vs control): 16.46
- Fold Change (gene RAF1 // MAP2, Transcript Cluster ID 2663244, intron expression, treated vs control): 10.61
- Fold Change (gene RAN, Transcript Cluster ID 3438027): 5.36
- Fold Change (gene RANGAP1, Transcript Cluster ID 3961842): 5.24
- Fold Change (gene RARS, Transcript Cluster ID 2839671): 5.08
- Fold Change (gene RASA1, intron expression, treated vs control): 6.60
- Fold Change (gene RASEF, intron expression, treated vs control): 6.52
- Fold Change (gene RASSF7, Transcript Cluster ID 3315952): 5.05
- Fold Change (gene RBM4, Transcript Cluster ID 3336422, intron expression, treated vs control): 9.60
- Fold Change (gene RBM7, change in expression level, treated vs control): 6.20
- Fold Change (gene RBM13, Transcript Cluster ID 3093259): 528
- Fold Change (gene RBM17, change in expression level, treated vs control): 6.47
